Experimental data: paper PMC11574084
Results are given in words; binding and its absence hold for the method and conditions named. In cells and extracts the contact can be indirect. Some binding calls cover weakened binding; strength is not graded here.

Protein sequences, listed by entry. Tags and fused reporters are not part of them.
UniProt O00629: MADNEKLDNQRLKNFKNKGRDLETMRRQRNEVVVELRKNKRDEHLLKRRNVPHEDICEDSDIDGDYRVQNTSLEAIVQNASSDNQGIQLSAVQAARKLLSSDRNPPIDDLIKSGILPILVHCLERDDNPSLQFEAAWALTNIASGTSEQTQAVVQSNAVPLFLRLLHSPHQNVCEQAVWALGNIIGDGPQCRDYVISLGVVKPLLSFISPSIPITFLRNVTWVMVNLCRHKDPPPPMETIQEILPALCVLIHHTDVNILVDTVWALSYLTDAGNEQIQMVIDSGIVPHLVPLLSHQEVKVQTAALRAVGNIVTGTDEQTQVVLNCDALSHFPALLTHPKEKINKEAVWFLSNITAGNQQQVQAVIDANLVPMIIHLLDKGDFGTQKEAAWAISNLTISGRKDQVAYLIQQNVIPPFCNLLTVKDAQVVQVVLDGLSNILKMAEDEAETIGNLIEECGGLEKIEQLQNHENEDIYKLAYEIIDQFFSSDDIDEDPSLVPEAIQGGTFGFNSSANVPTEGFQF

T1: IRF1 (human (endogenous in HUVEC)) (UniProt P10914)
T1 sequence: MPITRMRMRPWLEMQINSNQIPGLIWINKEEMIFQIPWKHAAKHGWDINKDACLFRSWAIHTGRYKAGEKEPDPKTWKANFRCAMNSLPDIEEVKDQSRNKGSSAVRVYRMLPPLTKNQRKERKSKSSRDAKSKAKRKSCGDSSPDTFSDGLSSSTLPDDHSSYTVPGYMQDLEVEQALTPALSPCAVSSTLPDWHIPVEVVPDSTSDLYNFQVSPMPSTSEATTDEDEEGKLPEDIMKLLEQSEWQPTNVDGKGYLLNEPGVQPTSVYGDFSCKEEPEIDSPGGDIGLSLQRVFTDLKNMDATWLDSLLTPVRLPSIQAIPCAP


Assays:
[1] = target: T1, IRF1 (human (endogenous in HUVEC)); test: co-IP; lysates of HUVEC cells with or without human IFN-γ (50 ng/mL) for 8 h; IP with anti-KPNA4 or anti-IRF1 antibody, western blotting for IRF1 or KPNA4
[2] = target: KPNA4 (human (endogenous in HUVEC)) (UniProt O00629); test: as above

| Molecule | binding [1] | binding [2] |
| --- | --- | --- |
| KPNA4 (from UniProt O00629 1-521) | binds |  |
| IRF1 (protein, UniProt P10914 1-325) MPITRMRMRPWLEMQINSNQIPGLIWINKEEMIFQIPWKHAAKHGWDINKDACLFRSWAIHTGRYKAGEKEPDPKTWKANFRCAMNSLPDIEEVKDQSRNKGSSAVRVYRMLPPLTKNQRKERKSKSSRDAKSKAKRKSCGDSSPDTFSDGLSSSTLPDDHSSYTVPGYMQDLEVEQALTPALSPCAVSSTLPDWHIPVEVVPDSTSDLYNFQVSPMPSTSEATTDEDEEGKLPEDIMKLLEQSEWQPTNVDGKGYLLNEPGVQPTSVYGDFSCKEEPEIDSPGGDIGLSLQRVFTDLKNMDATWLDSLLTPVRLPSIQAIPCAP |  | binds |
